Measurements published in patent publication US20210261642A1, “SOLUBILITY OF GLP-1 PEPTIDE” (Novo Nordisk A/S, priority 2017, published 2021).
The source gives many values for each of these; only a part stands here.

Experiment: Assay (I): Determination of Solubility (96-well plate, pH 3.0-11.0, organic solvent 0-70% w/w, UV absorption at 280 nm)
Format: physicochemical
Details: MeCN 12.7% w/w, Method 1
Protocol: Assay (I): Determination of Solubility
96-Well Plate Preparation
96-well plates containing target peptide in a solid form were prepared in one of two ways:
Method 1 (evaporation): Addition of 100 μl stock solution of said peptide at a concentration of 4-6 mg/ml to each well of a 96-well half area plate (150 μl well size). Subsequently the solvent was evaporated by applying a vacuum until the solvent was completely removed.
Method 2 (precipitation): Addition of a certain volume of a stock solution of said peptide containing to each well of a 96-well half area plate followed by the addition of a certain volume of concentrated phosphoric acid to obtain a pH of 4.6 followed by addition of a certain volume of ethanol resulting in a final ethanol concentration of 20% v/v. Subsequently the plate was stored at 4° C. for 1 h and then centrifuged at 4,000 rpm for 20 min. Finally the supernatant was removed. The concentration of the stock solution was chosen in a way that the final amount of peptide after supernatant removal was >0.4 mg per well.
In both cases the stock solution was prepared by adding de-ionized water to a certain amount of powder of said peptide followed by a stepwise addition of small amounts of a concentrated sodium hydroxide solution until said peptide was completely in solution.
To determine solubility of a target peptide at different pH and organic solvent concentrations, two different buffer systems were used in independent experiments to cover the whole range from pH 3.0 to pH 11.0. Buffer system 1 covers pH 3.0-7.5 and buffer system 2 covers pH 7.5-11.0. For each buffer system 96 different solvent compositions were premixed in the following way: • 1. A low pH buffer (adjusted to either pH 3.0 or pH 7.5) and a high pH buffer (adjusted to either pH 7.5 or pH 11.0) were mixed at 8 different ratios to obtain values between pH 3.0 and pH 7.5 or pH 7.5 and pH 11.0, respectively. The total volume after mixing was 300 μl. • 2. 12 different amounts of organic solvent were then added to these buffers to obtain organic solvent (e.g. ethanol) concentrations between 0 and 70% w/w. • 3. Water was then added to obtain a total weight of 1.0 g of solvent in each well.
After preparing the 96 different solvent systems, 100 μl of each system was transferred to the 96-well plate containing the solid form of the target peptide (prepared as described in the section “96-well plate preparation”). The plate was then stored at a given temperature (between 5° C. and 70° C.) for a given time on a rotating shaker set to 400 rpm. At regular time intervals the plate was centrifuged (4,000 rpm for 10 min) and a 10 μl sample was taken from each well. The samples were then analysed by UV absorption at 280 nm for peptide quantification. Peptide concentration results are given as UV absorption at 280 nm of the sample subtracted UV absorption at 280 nm of a well comprising 10 μl water.
The buffers used were as follows: • Buffer system 1 (for the pH range from pH 3.0-7.5)
• Buffer system 2 (for the pH ranae from pH 7.5-11.0)
Solubility of liraglutide was determined using Assay (I) described herein. Liraglutide was prepared using Method 1 (evaporation) or Method 2 (precipitation) as described in subsection “96-well plate preparation”.

Structure (SMILES): CCCCCCCCCCCCCCCC(=O)N[C@@H](CCC(=O)NCCCC[C@H](NC(=O)[C@H](C)NC(=O)[C@H](C)NC(=O)[C@H](CCC(N)=O)NC(=O)CNC(=O)[C@H](CCC(=O)O)NC(=O)[C@H](CC(C)C)NC(=O)[C@H](Cc1ccc(O)cc1)NC(=O)[C@H](CO)NC(=O)[C@H](CO)NC(=O)[C@@H](NC(=O)[C@H](CC(=O)O)NC(=O)[C@H](CO)NC(=O)[C@@H](NC(=O)[C@H](Cc1ccccc1)NC(=O)[C@@H](NC(=O)CNC(=O)[C@H](CCC(=O)O)NC(=O)[C@H](C)NC(=O)[C@@H](N)Cc1cnc[nH]1)[C@@H](C)O)[C@@H](C)O)C(C)C)C(=O)N[C@@H](CCC(=O)O)C(=O)N[C@@H](Cc1ccccc1)C(=O)N[C@H](C(=O)N[C@@H](C)C(=O)N[C@@H](Cc1c[nH]c2ccccc12)C(=O)N[C@@H](CC(C)C)C(=O)N[C@H](C(=O)N[C@@H](CCCNC(=N)N)C(=O)NCC(=O)N[C@@H](CCCNC(=N)N)C(=O)NCC(=O)O)C(C)C)[C@@H](C)CC)C(=O)O [liraglutide, Arg34,Lys26-(N-epsilon-(gamma-L-glutamyl(N-alfa-hexadecanoyl)))-GLP-1(7-37)]
- Peptide concentration after 180 min (pH 3.0, 5° C.): 0.2 mg/mL
- Peptide concentration after 24 h (pH 3.0, 5° C.): 0.3 mg/mL
- Peptide concentration after 5 min (pH 3.0, 70° C.): 3.5 mg/mL
- Peptide concentration after 180 min (pH 3.0, 70° C.): >4.0 mg/mL
- Peptide concentration after 5 min (pH 3.0, RT): 0.3 mg/mL
- Peptide concentration after 180 min (pH 3.0, RT): 0.1 mg/mL
- Peptide concentration after 24 h (pH 3.0, RT): 0.1 mg/mL
- Peptide concentration after 5 min (pH 3.6, 5° C.): 0.1 mg/mL
- Peptide concentration after 180 min (pH 3.6, 5° C.): 0.2 mg/mL
- Peptide concentration after 24 h (pH 3.6, 5° C.): 0.2 mg/mL
- Peptide concentration after 5 min (pH 3.6, 70° C.): 0.3 mg/mL
- Peptide concentration after 180 min (pH 3.6, 70° C.): 0.1 mg/mL
- Peptide concentration after 5 min (pH 3.6, RT): 0.1 mg/mL
- Peptide concentration after 180 min (pH 3.6, RT): 0.1 mg/mL
- Peptide concentration after 24 h (pH 3.6, RT): 0.1 mg/mL
- Peptide concentration after 5 min (pH 4.3, 5° C.): 0.1 mg/mL
- Peptide concentration after 180 min (pH 4.3, 5° C.): 0.1 mg/mL
- Peptide concentration after 24 h (pH 4.3, 5° C.): 0.1 mg/mL
- Peptide concentration after 5 min (pH 4.3, 70° C.): 0.1 mg/mL
- Peptide concentration after 180 min (pH 4.3, 70° C.): 0.0 mg/mL
- Peptide concentration after 5 min (pH 4.3, RT): 0.1 mg/mL
- Peptide concentration after 180 min (pH 4.3, RT): 0.1 mg/mL
- Peptide concentration after 24 h (pH 4.3, RT): 0.1 mg/mL
- Peptide concentration after 5 min (pH 4.9, 5° C.): 0.1 mg/mL
- Peptide concentration after 180 min (pH 4.9, 5° C.): 0.1 mg/mL
- Peptide concentration after 24 h (pH 4.9, 5° C.): 0.1 mg/mL
- Peptide concentration after 5 min (pH 4.9, 70° C.): 0.1 mg/mL
- Peptide concentration after 180 min (pH 4.9, 70° C.): 0.1 mg/mL
- Peptide concentration after 5 min (pH 4.9, RT): 0.1 mg/mL
- Peptide concentration after 180 min (pH 4.9, RT): 0.1 mg/mL
- Peptide concentration after 24 h (pH 4.9, RT): 0.0 mg/mL
- Peptide concentration after 5 min (pH 5.6, 5° C.): 0.1 mg/mL
- Peptide concentration after 180 min (pH 5.6, 5° C.): 0.1 mg/mL
- Peptide concentration after 24 h (pH 5.6, 5° C.): 0.1 mg/mL
- Peptide concentration after 5 min (pH 5.6, 70° C.): 0.5 mg/mL
- Peptide concentration after 180 min (pH 5.6, 70° C.): 0.1 mg/mL
- Peptide concentration after 5 min (pH 5.6, RT): 0.2 mg/mL
- Peptide concentration after 180 min (pH 5.6, RT): 0.2 mg/mL
- Peptide concentration after 24 h (pH 5.6, RT): 0.1 mg/mL
- Peptide concentration after 5 min (pH 6.2, 5° C.): 0.2 mg/mL
- Peptide concentration after 180 min (pH 6.2, 5° C.): 0.3 mg/mL
- Peptide concentration after 24 h (pH 6.2, 5° C.): 0.4 mg/mL
- Peptide concentration after 5 min (pH 6.2, 70° C.): 1.8 mg/mL
- Peptide concentration after 180 min (pH 6.2, 70° C.): 1.3 mg/mL
- Peptide concentration after 5 min (pH 6.2, RT): 0.5 mg/mL
- Peptide concentration after 180 min (pH 6.2, RT): 1.2 mg/mL
- Peptide concentration after 24 h (pH 6.2, RT): 1.3 mg/mL
- Peptide concentration after 5 min (pH 6.9, 5° C.): 1.0 mg/mL
- Peptide concentration after 180 min (pH 6.9, 5° C.): 2.3 mg/mL
